No constants are given. Whether binding was seen depends on the method and setting. In cells and extracts the contact can be indirect. Some binding calls cover weakened binding; strength is not graded here.
Biological target: STAT1 (human (endogenous in HCT116)) (UniProt P42224)
Assay: co-IP; endogenous co-IP from HCT116 cell lysates; 2 µg antibody at 4 °C overnight, Protein A/G-Sepharose beads 2 h at 4 °C, washed three times with PBST; for STAT1 with NF-κB p65 (Fig. 5D) cells were pretreated with 20 ng/mL IFN-γ and then treated with ACY-1215 (0, 2.5, 5.0 µM)

Chains of the proteins cited; added tags and fusions are not shown.
UniProt P42224: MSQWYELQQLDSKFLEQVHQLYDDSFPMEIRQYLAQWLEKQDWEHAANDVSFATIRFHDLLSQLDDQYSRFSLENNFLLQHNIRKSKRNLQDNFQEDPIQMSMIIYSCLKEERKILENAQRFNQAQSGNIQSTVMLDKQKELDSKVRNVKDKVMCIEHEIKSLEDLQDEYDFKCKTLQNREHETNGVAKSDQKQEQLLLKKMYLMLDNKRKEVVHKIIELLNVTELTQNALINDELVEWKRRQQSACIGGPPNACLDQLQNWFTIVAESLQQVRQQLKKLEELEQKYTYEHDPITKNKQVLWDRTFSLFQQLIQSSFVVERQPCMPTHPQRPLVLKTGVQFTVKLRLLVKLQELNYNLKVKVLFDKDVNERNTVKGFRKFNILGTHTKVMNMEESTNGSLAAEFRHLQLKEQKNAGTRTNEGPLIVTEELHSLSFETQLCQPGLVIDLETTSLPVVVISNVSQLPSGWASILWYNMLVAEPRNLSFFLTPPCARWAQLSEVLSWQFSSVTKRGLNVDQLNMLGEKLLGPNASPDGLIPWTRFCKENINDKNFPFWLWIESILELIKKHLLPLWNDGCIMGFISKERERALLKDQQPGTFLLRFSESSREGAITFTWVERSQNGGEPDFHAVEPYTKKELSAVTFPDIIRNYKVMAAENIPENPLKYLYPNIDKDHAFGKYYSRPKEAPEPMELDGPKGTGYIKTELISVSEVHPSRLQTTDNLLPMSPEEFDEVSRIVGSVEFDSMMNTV
UniProt Q9UBN7: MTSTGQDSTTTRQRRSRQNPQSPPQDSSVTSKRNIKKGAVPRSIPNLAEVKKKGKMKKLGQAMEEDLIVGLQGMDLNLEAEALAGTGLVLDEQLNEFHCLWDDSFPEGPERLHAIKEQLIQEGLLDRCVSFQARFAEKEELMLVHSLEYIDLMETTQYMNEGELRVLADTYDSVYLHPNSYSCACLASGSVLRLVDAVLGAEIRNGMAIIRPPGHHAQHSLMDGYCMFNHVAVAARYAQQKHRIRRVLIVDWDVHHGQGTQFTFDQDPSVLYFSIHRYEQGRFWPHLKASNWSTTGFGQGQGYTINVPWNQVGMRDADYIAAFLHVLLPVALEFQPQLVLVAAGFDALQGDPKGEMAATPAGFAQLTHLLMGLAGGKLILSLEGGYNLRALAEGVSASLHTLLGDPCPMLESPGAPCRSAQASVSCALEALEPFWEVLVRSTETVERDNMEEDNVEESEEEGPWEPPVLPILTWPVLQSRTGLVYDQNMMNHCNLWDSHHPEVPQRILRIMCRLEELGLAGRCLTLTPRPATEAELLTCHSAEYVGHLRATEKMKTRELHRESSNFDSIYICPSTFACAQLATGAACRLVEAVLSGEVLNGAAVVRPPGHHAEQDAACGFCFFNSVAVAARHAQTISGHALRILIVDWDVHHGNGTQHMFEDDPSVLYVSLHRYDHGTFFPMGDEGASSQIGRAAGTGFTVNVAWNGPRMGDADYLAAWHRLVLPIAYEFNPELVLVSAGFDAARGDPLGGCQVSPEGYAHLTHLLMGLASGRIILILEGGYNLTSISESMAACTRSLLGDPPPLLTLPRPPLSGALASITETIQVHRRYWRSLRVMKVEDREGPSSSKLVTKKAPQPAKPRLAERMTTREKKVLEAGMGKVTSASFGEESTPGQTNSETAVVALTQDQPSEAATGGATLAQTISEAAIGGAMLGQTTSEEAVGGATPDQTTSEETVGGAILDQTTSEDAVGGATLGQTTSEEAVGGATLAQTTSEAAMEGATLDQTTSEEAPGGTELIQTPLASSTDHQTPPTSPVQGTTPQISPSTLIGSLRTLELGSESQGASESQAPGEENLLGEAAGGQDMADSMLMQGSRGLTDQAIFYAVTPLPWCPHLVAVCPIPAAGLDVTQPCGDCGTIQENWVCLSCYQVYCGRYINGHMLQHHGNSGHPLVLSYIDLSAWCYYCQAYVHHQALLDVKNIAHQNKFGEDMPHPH

binding: binds
Substance: Histone deacetylase 6 (HDAC6) (from UniProt Q9UBN7 1-1215) (enzyme)
